Source: article PMC8406302
Results are given in words; binding and its absence hold for the method and conditions named. In cells and extracts the contact can be indirect. Some binding calls cover weakened binding; strength is not graded here. Tags and fused reporters may be left off the sequences shown. One block for each binder: values may come before it.

Molecular target: T1, His-tagged ABC transporter NisT (Lactococcus lactis) (UniProt Q03203)
T1 sequence: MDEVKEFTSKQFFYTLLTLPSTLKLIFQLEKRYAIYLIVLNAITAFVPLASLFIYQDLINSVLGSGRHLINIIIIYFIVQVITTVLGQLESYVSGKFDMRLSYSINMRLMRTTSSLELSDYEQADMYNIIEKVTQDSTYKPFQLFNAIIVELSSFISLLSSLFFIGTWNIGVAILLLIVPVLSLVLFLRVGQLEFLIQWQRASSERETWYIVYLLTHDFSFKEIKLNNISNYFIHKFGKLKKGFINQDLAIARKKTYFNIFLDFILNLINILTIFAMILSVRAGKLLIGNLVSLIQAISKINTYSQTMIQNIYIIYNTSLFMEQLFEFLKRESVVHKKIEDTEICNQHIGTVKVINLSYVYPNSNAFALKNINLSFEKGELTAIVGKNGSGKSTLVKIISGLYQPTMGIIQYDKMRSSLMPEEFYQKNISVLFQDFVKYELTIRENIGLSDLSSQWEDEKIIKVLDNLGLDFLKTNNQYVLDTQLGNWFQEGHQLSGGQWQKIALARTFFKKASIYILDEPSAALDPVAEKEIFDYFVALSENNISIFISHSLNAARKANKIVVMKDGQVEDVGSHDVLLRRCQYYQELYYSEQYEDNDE
Assay: pull-down; NisTHis held on Ni-NTA agarose from the membrane fraction solubilised with 1% DDM; 4°C; 50 mM NaH2PO4, 300 mM NaCl, pH 8.0, 0.1% DDM; wash 20 mM imidazole, elution 250 mM imidazole; elution 2 blotted with anti-His, anti-NisB and anti-NisC antibodies

binding: binds
B1: dehydratase NisB (enzyme, UniProt P20103 1-993)
chain: MIKSSFKAQPFLVRNTILCPNDKRSFTEYTQVIETVSKNKVFLEQLLLANPKLYDVMQKYNAGLLKKKRVKKLFESIYKYYKRSYLRSTPFGLFSETSIGVFSKSSQYKLMGKTTKGIRLDTQWLIRLVHKMEVDFSKKLSFTRNNANYKFGDRVFQVYTINSSELEEVNIKYTNVYQIISEFCENDYQKYEDICETVTLCYGDEYRELSEQYLGSLIVNHYLISNLQKDLLSDFSWNTFLTKVEAIDEDKKYIIPLKKVQKFIQEYSEIEIGEGIEKLKEIYQEMSQILENDNYIQIDLISDSEINFDVKQKQQLEHLAEFLGNTTKSVRRTYLDDYKDKFIEKYGVDQEVQITELFDSTFGIGAPYNYNHPRNDFYESEPSTLYYSEEEREKYLSMYVEAVKNHNVINLDDLESHYQKMDLEKKSELQGLELFLNLAKEYEKDIFILGDIVGNNNLGGASGRFSALSPELTSYHRTIVDSVERENENKEITSCEIVFLPENIRHANVMHTSIMRRKVLPFFTSTSHNEVLLTNIYIGIDEKEKFYARDISTQEVLKFYITSMYNKTLFSNELRFLYEISLDDKFGNLPWELIYRDFDYIPRLVFDEIVISPAKWKIWGRDVNSKMTIRELIQSKEIPKEFYIVNGDNKVYLSQKNPLDMEILESAIKKSSKRKDFIELQEYFEDENIINKGEKGRVADVVVPFIRTRALGNEGRAFIREKRVSVERREKLPFNEWLYLKLYISINRQNEFLLSYLPDIQKIVANLGGNLFFLRYTDPKPHIRLRIKCSDLFLAYGSILEILKRSRKNRIMSTFDISIYDQEVERYGGFDTLELSEAIFCADSKIIPNLLTLIKDTNNDWKVDDVSILVNYLYLKCFFQNDNKKILNFLNLVSTKKVKENVNEKIEHYLKLLKVNNLGDQIFYDKNFKELKHAIKNLFLKMIAQDFELQKVYSIIDSIIHVHNNRLIGIERDKEKLIYYTLQRLFVSEEYMK

binding: binds
B2: cyclase NisC (enzyme, UniProt Q03202 1-418)
chain: MRIMMNKKNIKRNVEKIIAQWDERTRKNKENFDFGELTLSTGLPGIILMLAELKNKDNSKIYQKKIDNYIEYIVSKLSTYGLLTGSLYSGAAGIALSILHLREDDEKYKNLLDSLNRYIEYFVREKIEGFNLENITPPDYDVIEGLSGILSYLLLINDEQYDDLKILIINFLSNLTKENNGLISLYIKSENQMSQSESEMYPLGCLNMGLAHGLAGVGCILAYAHIKGYSNEASLSALQKIIFIYEKFELERKKQFLWKDGLVADELKKEKVIREASFIRDAWCYGGPGISLLYLYGGLALDNDYFVDKAEKILESAMQRKLGIDSYMICHGYSGLIEICSLFKRLLNTKKFDSYMEEFNVNSEQILEEYGDESGTGFLEGISGCILVLSKFEYSINFTYWRQALLLFDDFLKGGKRK
